For assay [1], the target named is T1, Human PPARγ LBD (residues 206–477) (human, UniProt P37231-2 206-477).
T1 construct: The tag is detected in the AlphaScreen (hexahistidine detection kit); also called NR1C3; source: E. coli BL21(DE3), purified (Ni HiTrap HP, SP-Sepharose); not shown: His6, N-terminal, kept
T1 sequence (looked up): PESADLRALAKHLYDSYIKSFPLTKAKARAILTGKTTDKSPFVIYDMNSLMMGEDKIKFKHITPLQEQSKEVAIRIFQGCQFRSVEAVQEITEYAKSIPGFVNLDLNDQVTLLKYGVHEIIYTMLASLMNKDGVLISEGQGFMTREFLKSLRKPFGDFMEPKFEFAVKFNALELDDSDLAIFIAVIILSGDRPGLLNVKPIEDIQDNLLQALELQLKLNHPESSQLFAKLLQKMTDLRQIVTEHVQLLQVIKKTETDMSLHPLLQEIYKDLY
The assay can be described thus: AlphaScreen or HTRF; hexahistidine detection kit; about 20–40 nmol/l His6-PPARγ LBD and 20 nmol/l biotinylated peptide, 5 μg/ml donor and acceptor beads; 50 mmol/l MOPS, 50 mmol/l NaF, 0.05 mmol/l CHAPS, 0.1 mg/ml BSA, pH 7.4; with chelerythrine (5 μmol/l, and dose curves); both purified.

Assay [2] deals with T1, Human PPARγ LBD (residues 206–477). Briefly: AlphaScreen or HTRF; hexahistidine detection kit; about 20–40 nmol/l His6-PPARγ LBD and 20 nmol/l biotinylated peptide, 5 μg/ml donor and acceptor beads; 50 mmol/l MOPS, 50 mmol/l NaF, 0.05 mmol/l CHAPS, 0.1 mg/ml BSA, pH 7.4; with rosiglitazone (1 μmol/l, and dose curves); both purified.

Results are given in words; binding and its absence hold for the method and conditions named. Some results given as binding are weak or reduced against the parent protein; the word gives no strength.

As for SPSSHSSLTERHKILHRLLQEGSP (N-terminal biotinylation) [SRC1 coactivator peptide, N-terminally biotinylated], the binding result in assay [1] is recorded as “binds weakly”. QEPVSPKKKENALLRYLLDKDDTKD (N-terminal biotinylation) [SRC2 coactivator peptide, N-terminally biotinylated]: the binding result in assay [1] is reported as “binds weakly”. As to PDAASKHKQLSELLRGGSG (N-terminal biotinylation) [SRC3 coactivator peptide, N-terminally biotinylated], the results for the binding entry in assay [1] and in assay [2] were “binds weakly” and “binds”, respectively.

(Values after article PMC4505335, “Selective targeting of PPARγ by the natural product chelerythrine with a unique binding mode and improved antidiabetic potency” (Scientific Reports, 2015).)
